The other results are listed elsewhere or left out.
What was measured:
Assay in all cases: log2 fold change, soluble protein after heating vs DMSO (PISA); higher = thermal stabilisation; K562 lysate, 10 uM; active = over 0.2 and 3.5 SD of the protein, either way, in both replicates (recomputed)
[1] = compound: CS(=O)(=O)CCNCc1ccc(-c2ccc3ncnc(Nc4ccc(OCc5cccc(F)c5)c(Cl)c4)c3c2)o1 [lapatinib]
Summary of the method: (§1)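 Following dounce homogenisation of K562 pellets in PBS pH 7.4 with 1 mM MgCl2, crude extract at 1 mg/mL protein was incubated for 30 min with 10 μM compound. Aliquots were then heated for 3 min over 48°C-58°C and pooled, NP-40 was added to 0.5% at 4°C, and soluble protein was recovered as the supernatant at 21,000xg for 90 min. Channel-sum-equalised TMTpro 16plex LC-MS/MS quantified this protein. Each value, from duplicates, is a log-two fold change in thermal stability relative to solvent controls.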

Protein sequences, listed by entry. Tags and fused reporters are not part of them. Lines headed by an entry give the natural chain unless they say otherwise; changes in a name come on top.
UniProt Q15366, whole entry, looked up: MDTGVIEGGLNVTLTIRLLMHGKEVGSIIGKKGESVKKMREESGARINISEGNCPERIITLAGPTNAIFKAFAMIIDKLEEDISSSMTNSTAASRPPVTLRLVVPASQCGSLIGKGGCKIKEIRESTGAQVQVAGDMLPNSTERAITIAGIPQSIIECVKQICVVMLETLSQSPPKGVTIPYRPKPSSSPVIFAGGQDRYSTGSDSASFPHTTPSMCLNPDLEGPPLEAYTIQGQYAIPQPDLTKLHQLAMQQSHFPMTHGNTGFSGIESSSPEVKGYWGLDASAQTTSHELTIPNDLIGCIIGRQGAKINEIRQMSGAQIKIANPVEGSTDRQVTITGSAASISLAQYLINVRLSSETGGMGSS
UniProt Q8NEN9: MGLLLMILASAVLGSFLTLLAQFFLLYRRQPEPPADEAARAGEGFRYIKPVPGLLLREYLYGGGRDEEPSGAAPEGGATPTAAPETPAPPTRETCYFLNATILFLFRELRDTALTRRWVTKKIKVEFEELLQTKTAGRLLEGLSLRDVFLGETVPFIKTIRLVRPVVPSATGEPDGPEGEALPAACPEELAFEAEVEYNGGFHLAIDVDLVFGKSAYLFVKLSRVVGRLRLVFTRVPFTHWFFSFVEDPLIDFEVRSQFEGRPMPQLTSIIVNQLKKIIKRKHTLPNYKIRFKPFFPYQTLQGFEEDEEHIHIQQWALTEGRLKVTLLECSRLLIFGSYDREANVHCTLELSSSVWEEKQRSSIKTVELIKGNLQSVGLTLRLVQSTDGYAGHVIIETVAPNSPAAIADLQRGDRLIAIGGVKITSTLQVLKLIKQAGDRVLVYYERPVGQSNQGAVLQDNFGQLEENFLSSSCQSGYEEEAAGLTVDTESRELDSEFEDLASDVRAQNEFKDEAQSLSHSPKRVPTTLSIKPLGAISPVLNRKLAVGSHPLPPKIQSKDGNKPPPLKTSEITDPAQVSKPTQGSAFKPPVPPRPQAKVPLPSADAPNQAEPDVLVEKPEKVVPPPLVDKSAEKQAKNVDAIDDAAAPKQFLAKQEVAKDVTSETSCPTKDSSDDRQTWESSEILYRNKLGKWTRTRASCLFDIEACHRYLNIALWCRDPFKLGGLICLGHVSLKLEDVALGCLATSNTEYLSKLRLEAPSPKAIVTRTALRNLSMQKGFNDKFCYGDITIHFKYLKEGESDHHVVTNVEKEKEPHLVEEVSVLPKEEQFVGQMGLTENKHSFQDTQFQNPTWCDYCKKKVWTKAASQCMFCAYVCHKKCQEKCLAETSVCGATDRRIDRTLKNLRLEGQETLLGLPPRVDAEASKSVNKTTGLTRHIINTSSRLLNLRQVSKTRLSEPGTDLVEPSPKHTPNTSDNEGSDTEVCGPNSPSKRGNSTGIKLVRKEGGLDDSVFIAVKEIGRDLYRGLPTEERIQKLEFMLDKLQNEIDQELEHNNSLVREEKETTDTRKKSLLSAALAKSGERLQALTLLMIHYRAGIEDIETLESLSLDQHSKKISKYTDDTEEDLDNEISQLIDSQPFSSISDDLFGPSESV
UniProt Q8WW12: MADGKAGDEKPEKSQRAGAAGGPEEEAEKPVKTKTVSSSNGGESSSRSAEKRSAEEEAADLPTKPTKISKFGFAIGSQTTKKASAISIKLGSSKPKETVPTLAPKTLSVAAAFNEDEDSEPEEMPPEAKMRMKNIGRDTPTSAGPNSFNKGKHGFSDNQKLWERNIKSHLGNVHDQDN
UniProt O60825: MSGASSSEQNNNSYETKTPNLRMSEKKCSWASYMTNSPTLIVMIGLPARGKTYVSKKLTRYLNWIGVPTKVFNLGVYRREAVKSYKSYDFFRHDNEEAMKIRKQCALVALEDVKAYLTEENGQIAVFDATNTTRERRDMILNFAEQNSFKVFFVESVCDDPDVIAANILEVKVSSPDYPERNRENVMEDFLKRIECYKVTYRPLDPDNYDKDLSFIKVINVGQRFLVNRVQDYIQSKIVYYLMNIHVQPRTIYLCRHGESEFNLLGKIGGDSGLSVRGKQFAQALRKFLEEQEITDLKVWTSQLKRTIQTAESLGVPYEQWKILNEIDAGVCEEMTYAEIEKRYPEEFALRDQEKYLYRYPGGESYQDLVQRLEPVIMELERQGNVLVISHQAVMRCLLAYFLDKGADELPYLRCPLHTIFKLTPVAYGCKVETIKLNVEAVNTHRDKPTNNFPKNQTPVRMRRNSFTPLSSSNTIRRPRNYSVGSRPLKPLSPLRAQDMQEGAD
UniProt O75340: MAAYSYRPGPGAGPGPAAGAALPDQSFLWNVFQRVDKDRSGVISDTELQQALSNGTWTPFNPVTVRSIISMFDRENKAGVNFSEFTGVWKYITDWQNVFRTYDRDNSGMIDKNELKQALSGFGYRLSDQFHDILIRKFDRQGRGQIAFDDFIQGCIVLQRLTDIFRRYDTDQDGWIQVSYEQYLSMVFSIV
UniProt Q13371: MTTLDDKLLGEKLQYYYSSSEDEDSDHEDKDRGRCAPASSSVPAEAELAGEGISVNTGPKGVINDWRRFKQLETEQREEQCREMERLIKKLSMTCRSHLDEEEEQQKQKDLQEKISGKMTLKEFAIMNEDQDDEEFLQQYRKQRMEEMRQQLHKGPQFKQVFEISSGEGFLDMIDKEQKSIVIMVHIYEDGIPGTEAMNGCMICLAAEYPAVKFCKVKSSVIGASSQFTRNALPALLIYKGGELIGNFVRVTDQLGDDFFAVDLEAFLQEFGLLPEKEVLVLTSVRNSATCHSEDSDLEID
UniProt P11498: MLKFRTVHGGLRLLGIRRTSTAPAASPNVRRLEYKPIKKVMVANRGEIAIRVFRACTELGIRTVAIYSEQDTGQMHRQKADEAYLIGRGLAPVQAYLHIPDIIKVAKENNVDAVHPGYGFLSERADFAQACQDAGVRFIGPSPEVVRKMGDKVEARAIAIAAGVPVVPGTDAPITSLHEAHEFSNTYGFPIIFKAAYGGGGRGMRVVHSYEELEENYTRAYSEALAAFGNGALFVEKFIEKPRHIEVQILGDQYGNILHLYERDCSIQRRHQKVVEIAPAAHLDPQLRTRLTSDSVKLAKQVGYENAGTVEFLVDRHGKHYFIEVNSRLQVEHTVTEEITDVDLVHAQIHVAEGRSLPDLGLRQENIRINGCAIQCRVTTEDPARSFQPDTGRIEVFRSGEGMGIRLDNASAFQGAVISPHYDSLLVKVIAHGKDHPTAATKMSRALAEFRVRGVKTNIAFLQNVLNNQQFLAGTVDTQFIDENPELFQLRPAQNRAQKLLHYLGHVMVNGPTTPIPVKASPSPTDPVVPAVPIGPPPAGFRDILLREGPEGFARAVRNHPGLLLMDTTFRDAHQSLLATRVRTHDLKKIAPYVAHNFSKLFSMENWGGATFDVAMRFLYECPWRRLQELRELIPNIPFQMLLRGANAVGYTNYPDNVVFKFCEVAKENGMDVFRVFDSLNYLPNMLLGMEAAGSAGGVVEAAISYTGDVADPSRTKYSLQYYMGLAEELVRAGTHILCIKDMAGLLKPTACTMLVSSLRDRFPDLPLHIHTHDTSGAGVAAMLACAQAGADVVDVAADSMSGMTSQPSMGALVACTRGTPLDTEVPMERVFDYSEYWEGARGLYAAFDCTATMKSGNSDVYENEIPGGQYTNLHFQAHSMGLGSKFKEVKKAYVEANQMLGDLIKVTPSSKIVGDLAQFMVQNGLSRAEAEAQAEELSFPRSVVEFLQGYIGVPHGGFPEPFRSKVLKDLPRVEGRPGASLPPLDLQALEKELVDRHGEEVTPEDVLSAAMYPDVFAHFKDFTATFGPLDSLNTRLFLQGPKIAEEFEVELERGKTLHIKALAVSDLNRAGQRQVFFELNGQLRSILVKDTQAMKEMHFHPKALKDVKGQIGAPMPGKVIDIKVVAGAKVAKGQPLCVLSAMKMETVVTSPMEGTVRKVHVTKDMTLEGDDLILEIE
UniProt Q96HS1, whole entry, looked up: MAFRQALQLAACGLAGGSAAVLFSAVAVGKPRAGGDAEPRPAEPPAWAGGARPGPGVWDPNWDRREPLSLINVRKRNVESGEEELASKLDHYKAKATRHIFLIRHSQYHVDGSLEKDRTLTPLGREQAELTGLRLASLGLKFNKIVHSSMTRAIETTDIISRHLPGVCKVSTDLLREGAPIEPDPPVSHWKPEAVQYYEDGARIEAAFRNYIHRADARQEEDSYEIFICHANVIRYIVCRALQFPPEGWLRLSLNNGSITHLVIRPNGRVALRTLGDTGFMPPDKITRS
UniProt P50479: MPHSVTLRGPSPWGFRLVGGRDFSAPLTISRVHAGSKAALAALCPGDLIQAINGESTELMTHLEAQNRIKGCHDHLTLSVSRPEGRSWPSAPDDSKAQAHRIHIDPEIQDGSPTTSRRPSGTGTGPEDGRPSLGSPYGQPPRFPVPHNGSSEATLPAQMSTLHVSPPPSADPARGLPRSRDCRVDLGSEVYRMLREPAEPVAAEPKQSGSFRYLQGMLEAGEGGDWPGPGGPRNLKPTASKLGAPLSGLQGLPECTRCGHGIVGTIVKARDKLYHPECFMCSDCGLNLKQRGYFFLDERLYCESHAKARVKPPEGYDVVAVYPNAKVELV
UniProt Q16822, whole entry, looked up: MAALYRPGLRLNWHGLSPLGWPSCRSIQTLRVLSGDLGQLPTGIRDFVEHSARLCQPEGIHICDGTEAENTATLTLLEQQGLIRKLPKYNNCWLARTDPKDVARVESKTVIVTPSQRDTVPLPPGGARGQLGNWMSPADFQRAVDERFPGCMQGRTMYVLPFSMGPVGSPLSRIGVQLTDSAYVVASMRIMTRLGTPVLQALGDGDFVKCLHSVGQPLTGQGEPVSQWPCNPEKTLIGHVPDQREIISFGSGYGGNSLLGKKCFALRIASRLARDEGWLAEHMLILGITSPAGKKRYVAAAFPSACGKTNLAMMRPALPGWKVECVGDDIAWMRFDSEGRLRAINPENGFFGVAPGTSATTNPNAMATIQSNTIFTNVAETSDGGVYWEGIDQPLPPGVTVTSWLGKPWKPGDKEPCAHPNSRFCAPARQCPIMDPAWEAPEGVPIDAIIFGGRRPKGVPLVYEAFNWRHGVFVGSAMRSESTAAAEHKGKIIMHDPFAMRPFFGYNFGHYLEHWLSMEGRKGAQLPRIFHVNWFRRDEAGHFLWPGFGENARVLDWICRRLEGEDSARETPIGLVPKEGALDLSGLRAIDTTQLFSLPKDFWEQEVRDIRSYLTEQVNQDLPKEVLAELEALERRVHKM
UniProt Q9NQP4, whole entry, looked up: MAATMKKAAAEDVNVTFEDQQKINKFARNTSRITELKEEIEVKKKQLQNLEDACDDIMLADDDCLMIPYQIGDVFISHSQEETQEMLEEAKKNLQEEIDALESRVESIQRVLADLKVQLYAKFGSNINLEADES
UniProt Q8WUM4: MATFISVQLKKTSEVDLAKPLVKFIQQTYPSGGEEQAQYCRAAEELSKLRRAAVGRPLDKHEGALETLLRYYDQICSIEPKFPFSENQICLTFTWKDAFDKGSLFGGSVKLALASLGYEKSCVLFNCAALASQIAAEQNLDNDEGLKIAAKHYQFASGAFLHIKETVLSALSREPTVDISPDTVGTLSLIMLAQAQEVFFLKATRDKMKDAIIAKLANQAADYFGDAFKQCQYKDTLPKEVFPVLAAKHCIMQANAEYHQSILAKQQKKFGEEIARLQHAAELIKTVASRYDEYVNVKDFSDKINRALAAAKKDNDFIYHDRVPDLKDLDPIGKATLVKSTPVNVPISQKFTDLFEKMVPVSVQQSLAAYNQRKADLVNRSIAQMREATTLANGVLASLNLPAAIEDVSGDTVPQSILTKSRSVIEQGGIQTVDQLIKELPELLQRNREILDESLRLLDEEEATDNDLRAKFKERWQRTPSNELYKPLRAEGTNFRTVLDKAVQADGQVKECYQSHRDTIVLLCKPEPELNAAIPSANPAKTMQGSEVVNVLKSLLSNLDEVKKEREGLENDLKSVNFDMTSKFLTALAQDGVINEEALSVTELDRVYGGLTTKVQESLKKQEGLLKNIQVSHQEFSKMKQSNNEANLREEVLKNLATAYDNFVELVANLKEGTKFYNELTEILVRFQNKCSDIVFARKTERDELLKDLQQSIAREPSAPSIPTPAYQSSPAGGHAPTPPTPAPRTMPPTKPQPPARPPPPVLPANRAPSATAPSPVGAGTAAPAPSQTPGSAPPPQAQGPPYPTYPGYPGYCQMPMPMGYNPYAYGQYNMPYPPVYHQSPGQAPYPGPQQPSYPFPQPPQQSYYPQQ
UniProt Q9UKL6: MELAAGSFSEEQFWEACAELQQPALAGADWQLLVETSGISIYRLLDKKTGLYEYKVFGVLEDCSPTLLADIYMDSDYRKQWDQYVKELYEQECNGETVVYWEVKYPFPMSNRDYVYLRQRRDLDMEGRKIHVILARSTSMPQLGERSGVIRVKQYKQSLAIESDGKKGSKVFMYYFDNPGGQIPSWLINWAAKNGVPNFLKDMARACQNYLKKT

[2] = compound: CS(=O)(=O)N1CCN(Cc2cc3nc(-c4cccc5[nH]ncc45)nc(N4CCOCC4)c3s2)CC1 [pictilisib]
Summary of the method: as §1

[3] = compound: C[C@@H](Oc1cc(-c2cnn(C3CCNCC3)c2)cnc1N)c1c(Cl)ccc(F)c1Cl [crizotinib]
Summary of the method: as §1

[4] = compound: C[C@H](C1=CC=C(C=C1)C(=O)NC2=C3C=CNC3=NC=C2)N
Summary of the method: as §1

[5] = compound: C[C@H](Nc1ncnc2nc[nH]c12)c1cc2cccc(Cl)c2c(=O)n1-c1ccccc1 [duvelisib]
Summary of the method: as §1

[6] = compound: Cc1cc(Nc2cc(CN3CCOCC3)c3nc(C)c(Cc4ccc(Cl)cc4F)n3n2)n[nH]1 [gandotinib]
Summary of the method: as §1

[7] = compound: Cc1cc(Nc2cc(N3CCN(C)CC3)nc(Sc3ccc(NC(=O)C4CC4)cc3)n2)n[nH]1 [tozasertib]
Summary of the method: as §1

[8] = compound: Cc1ccc(-n2nc(C(C)(C)C)cc2NC(=O)Nc2ccc(OCCN3CCOCC3)c3ccccc23)cc1 [doramapimod]
Summary of the method: as §1

[9] = compound: Cc1ccc(NC(=O)c2ccc(CN3CC[C@H](N(C)C)C3)c(C(F)(F)F)c2)cc1Nc1nccc(-c2cncnc2)n1 [bafetinib]
Summary of the method: as §1

[10] = compound: Cc1cccc(CC(=O)N2CCc3c2ccc(-c2cn(C)c4ncnc(N)c24)c3F)n1
Summary of the method: as §1

[11] = compound: Cc1cn(-c2cc(NC(=O)c3ccc(C)c(Nc4nccc(-c5cccnc5)n4)c3)cc(C(F)(F)F)c2)cn1 [nilotinib]
Summary of the method: as §1

[12] = compound: Cc1nc(Nc2n[nH]c3c2CN(C(=O)N[C@H](CN(C)C)c2ccccc2)C3(C)C)c2sccc2n1
Summary of the method: as §1

[13] = compound: Cc1nc(Nc2ncc(C(=O)Nc3c(C)cccc3Cl)s2)cc(N2CCN(CCO)CC2)n1 [dasatinib]
Summary of the method: as §1

[14] = compound: Cc1ncc(-c2ccnc(Nc3ccc(S(C)(=O)=O)cc3)n2)n1C(C)C
Summary of the method: as §1

[15] = compound: Cn1cc(-c2ccc3c(c2)CCN3C(=O)Cc2cccc(C(F)(F)F)c2)c2c(N)ncnc21
Summary of the method: as §1

[16] = compound: Cn1cc(CNCC2CCN(c3ncc(C(=O)NO)cn3)CC2)c2ccccc21 [quisinostat]
Summary of the method: as §1

[17] = compound: Cn1cncc1[C@@](N)(c1ccc(Cl)cc1)c1ccc2c(c1)c(-c1cccc(Cl)c1)cc(=O)n2C [tipifarnib]
Summary of the method: as §1

[18] = compound: NC(=O)Nc1cc(-c2cccc(F)c2)sc1C(=O)N[C@H]1CCCNC1
Summary of the method: as §1

[19] = compound: NC(=O)c1cnc(N[C@@H]2CCCC[C@@H]2N)nc1Nc1cccc(-n2nccn2)c1
Summary of the method: as §1

[20] = compound: NC1(c2ccc(-c3nc4ccn5c(=O)[nH]nc5c4cc3-c3ccccc3)cc2)CCC1
Summary of the method: as §1

Measured: log2 fold change

PCBP2 isoform 8 (UniProt Q15366)
inactive: [1] 0.022 | [2] -0.013 | [3] 0.001 | [4] 0.013 | [5] 0.04 | [6] 0.029 | [7] -0.026 | [8] -0.092 | [9] 0.082 | [10] 0.036 | [11] 0.059 | [12] 0.069 | [13] -0.057 | [14] 0.04 | [15] 0.003 | [16] 0.133 | [17] 0.015 | [18] 0.055 | [19] -0.091 | [20] -0.049

PDZD8 (UniProt Q8NEN9)
inactive: [1] -0.021 | [2] -0.151 | [3] -0.018 | [4] -0.035 | [5] 0.015 | [6] -0.055 | [7] -0.04 | [8] 0.022 | [9] -0.075 | [10] 0.034 | [11] 0.016 | [12] 0.011 | [13] -0.04 | [14] 0.054 | [15] -0.03 | [16] 0.01 | [17] -0.005 | [18] 0.006 | [19] -0.02 | [20] 0.009

PCNP (UniProt Q8WW12)
inactive: [1] 0.004 | [2] -0.001 | [3] 0.012 | [4] -0.103 | [5] -0.022 | [6] 0.089 | [7] -0.056 | [8] -0.095 | [9] 0.039 | [10] 0.062 | [11] -0.021 | [12] -0.024 | [13] -0.015 | [14] 0.004 | [15] -0.034 | [16] 0.017 | [17] 0.002 | [18] -0.074 | [19] -0.022 | [20] -0.017

PFKFB2 (UniProt O60825)
inactive: [1] 0.006 | [2] 0.001 | [3] 0.017 | [4] -0.016 | [5] -0.015 | [6] -0.035 | [7] 0.038 | [8] -0.018 | [9] -0.07 | [10] 0.01 | [11] -0.04 | [12] 0.011 | [13] 0.017 | [14] -0.043 | [15] 0.014 | [16] 0.024 | [17] -0.011 | [18] -0.046 | [19] -0.003 | [20] -0.009

PDCD6 (UniProt O75340)
inactive: [1] 0.011 | [2] 0.025 | [3] -0.012 | [4] -0.015 | [5] 0.005 | [6] 0.016 | [7] 0.004 | [8] 0.016 | [9] -0.044 | [10] 0.029 | [11] 0.011 | [12] 0.018 | [13] 0.002 | [14] -0.002 | [15] -0.001 | [16] 0.033 | [17] -0.034 | [18] -0.023 | [19] -0.049 | [20] -0.023

PDCL (UniProt Q13371)
inactive: [1] 0.013 | [2] 0.016 | [3] -0.014 | [4] -0.009 | [5] -0.02 | [6] -0.001 | [7] -0.027 | [8] -0.002 | [9] -0.039 | [10] 0.044 | [11] -0.04 | [12] 0.03 | [13] 0.009 | [14] 0.057 | [15] 0.001 | [16] -0.034 | [17] -0.031 | [18] 0.025 | [19] -0.002 | [20] 0.026

PC (UniProt P11498)
inactive: [1] -0.025 | [2] -0.047 | [3] -0.036 | [4] 0.037 | [5] -0.006 | [6] -0.109 | [7] 0.005 | [8] -0.01 | [9] 0.007 | [10] 0.014 | [11] 0.037 | [12] -0.069 | [13] -0.028 | [14] -0.004 | [15] 0.015 | [16] 0.013 | [17] -0.012 | [18] 0.037 | [19] 0.044 | [20] -0.008

PGAM5 (UniProt Q96HS1)
inactive: [1] -0.023 | [2] -0.003 | [3] -0.016 | [4] -0.039 | [5] -0.006 | [6] 0.002 | [7] -0.007 | [8] 0.002 | [9] -0.02 | [10] 0.027 | [11] -0.009 | [12] 0.041 | [13] -0.008 | [14] -0.004 | [15] -0.005 | [16] -0.012 | [17] -0.012 | [18] 0.015 | [19] 0.013 | [20] 0.015

PDLIM4 (UniProt P50479)
inactive: [1] 0.016 | [2] 0 | [3] 0.005 | [4] -0.056 | [5] -0.057 | [6] 0.047 | [7] -0.046 | [8] -0.066 | [9] -0.013 | [10] 0.007 | [11] 0.02 | [12] 0.005 | [13] 0.007 | [14] 0.049 | [15] -0.004 | [16] 0.065 | [17] 0.019 | [18] -0.001 | [19] 0.018 | [20] -0.018

PCK2 (UniProt Q16822)
inactive: [1] 0.007 | [2] -0.02 | [3] -0.029 | [4] -0.016 | [5] 0.014 | [6] -0.016 | [7] 0.002 | [8] 0.011 | [9] -0.017 | [10] 0.035 | [11] 0.035 | [12] -0.016 | [13] -0.037 | [14] 0.027 | [15] 0.023 | [16] 0.021 | [17] 0.029 | [18] -0.022 | [19] 0.022 | [20] 0.052

PEX5 isoform 4 (UniProt P50542)
inactive: [1] -0.092 | [2] -0.064 | [3] -0.029 | [4] 0.044 | [5] -0.041 | [6] -0.059 | [7] 0.044 | [8] -0.024 | [9] -0.098 | [10] 0 | [11] -0.023 | [12] -0.043 | [13] -0.084 | [14] 0.008 | [15] 0.009 | [16] -0.011 | [17] 0.012 | [18] -0.012 | [19] 0.129 | [20] -0.029

PDE4DIP isoform 4 (UniProt Q5VU43)
inactive: [1] -0.003 | [2] -0.076 | [3] -0.048 | [4] -0.069 | [5] -0.017 | [6] 0.116 | [7] -0.005 | [8] 0 | [9] -0.073 | [10] 0.05 | [11] -0.026 | [12] 0.004 | [13] 0.007 | [14] -0.015 | [15] -0.029 | [16] -0.083 | [17] -0.032 | [18] -0.018 | [19] -0.034 | [20] -0.011

PFKP (UniProt Q01813)
inactive: [1] -0.011 | [2] -0.014 | [3] 0.014 | [4] 0.033 | [5] -0.02 | [6] -0.034 | [7] -0.012 | [8] -0.015 | [9] 0.005 | [10] -0.012 | [11] 0.026 | [12] -0.014 | [13] 0.012 | [14] 0.003 | [15] 0.009 | [16] 0.024 | [17] 0.016 | [18] 0 | [19] -0.008 | [20] -0.004

Reprinted from the results shown (2 entries):
PDLIM4 (UniProt P50479)
inactive: [1] 0.016 | [2] 0 | [3] 0.005 | [4] -0.056 | [5] -0.057 | [6] 0.047 | [7] -0.046 | [8] -0.066 | [9] -0.013 | [10] 0.007 | [11] 0.02 | [12] 0.005 | [13] 0.007 | [14] 0.049 | [15] -0.004 | [16] 0.065 | [17] 0.019 | [18] -0.001 | [19] 0.018 | [20] -0.018

PCK2 (UniProt Q16822)
inactive: [1] 0.007 | [2] -0.02 | [3] -0.029 | [4] -0.016 | [5] 0.014 | [6] -0.016 | [7] 0.002 | [8] 0.011 | [9] -0.017 | [10] 0.035 | [11] 0.035 | [12] -0.016 | [13] -0.037 | [14] 0.027 | [15] 0.023 | [16] 0.021 | [17] 0.029 | [18] -0.022 | [19] 0.022 | [20] 0.052

Next part

PFDN4 (UniProt Q9NQP4)
inactive: [1] -0.004 | [2] -0.036 | [3] -0.015 | [4] 0.045 | [5] 0.017 | [6] 0.019 | [7] -0.03 | [8] 0.039 | [9] 0.032 | [10] -0.049 | [11] 0 | [12] 0.009 | [13] 0.055 | [14] -0.018 | [15] -0.186 | [16] 0.017 | [17] 0.042 | [18] -0.01 | [19] 0.042 | [20] 0

PDCD6IP (UniProt Q8WUM4)
inactive: [1] -0.006 | [2] -0.032 | [3] -0.103 | [4] -0.106 | [5] 0.004 | [6] -0.012 | [7] 0.033 | [8] 0.034 | [9] -0.053 | [10] 0.012 | [11] 0.059 | [12] -0.045 | [13] -0.023 | [14] -0.006 | [15] 0.049 | [16] 0.001 | [17] 0.06 | [18] 0 | [19] -0.058 | [20] -0.032

PCTP (UniProt Q9UKL6)
inactive: [1] -0.011 | [2] 0.021 | [3] -0.032 | [4] -0.096 | [5] -0.056 | [6] 0.052 | [7] 0.017 | [8] -0.033 | [9] -0.018 | [10] 0.15 | [11] 0.017 | [12] 0.021 | [13] -0.03 | [14] 0.022 | [15] -0.021 | [16] -0.018 | [17] -0.097 | [18] 0.009 | [19] 0.029 | [20] 0
